Experimental data from patent US12403104B2, “Compounds and methods of promoting myelination” (Case Western Reserve University, priority 2016, dated 2025).
Some of these results come from one statement about several compounds together.

System: mouse epiblast stem cell-derived OPCs
Assay: In vitro phenotypic screening of OPCs (MBP+ oligodendrocytes at 72 h)
Type: cell-based
Description: Then, 40,000 cells were seeded per well in differentiation medium and allowed to attach for 30 min before addition of drug. […] Sterols were added to cells as an ethanol solution (0.2% final ethanol concentration). […] Cells were incubated under standard conditions (37° C., 5% CO2) for 3 days and fixed with 4% paraformaldehyde (PFA) in phosphate buffered saline (PBS) for 20 min. Fixed plates were washed with PBS (200 μL per well) twice, permeabilized with 0.1% Triton X-100 and blocked with 10% donkey serum (v/v) in PBS for 40 min. […] Nuclei were visualized by DAPI staining (Sigma; 1 μg/ml).

CCC(C)(C)c1ccc(CC(C)CN2C[C@@H](C)O[C@@H](C)C2)cc1 (some centres unmarked) [amorolfine, Amorolfine]
doses effective for enhancing oligodendrocyte formation: below 100 nM

COc1ccc(S(=O)(=O)N2CCC(N3CCC(C)CC3)CC2)cc1 [TASIN-1, Tasin-1]
doses effective for enhancing oligodendrocyte formation: below 100 nM
